Laboratory results from PubChem BioAssay AID254 (DTP/NCI, 2004).
The list does not hold the whole screen: it gathers tests that were run many times, whatever their T/C, doses with no T/C, and many T/C values between a quarter and a half above the control. Other doses and runs of a compound stand elsewhere. T/C gives the treated animals as a percentage of the vehicle group. Some entries give survivors of the animals treated and no T/C: the source holds a T/C of zero for them, seemingly a mark for toxic or unscored doses. Some doses without a T/C left all or most animals alive at the check, yet need not have been tolerated: survival well below the control is almost never listed, so the zero probably covers shortened survival too. Survivors were counted at the toxicity check, usually on the fifth day, unless a day is given; later deaths do not show. Schedule codes are those of the source, taken here to give the interval after Q, in days (D) or hours (H), and the number of doses after X. Some schedule codes hold Z or #, which are not explained here. Where survival is the endpoint, this PubChem deposit counts one and a half times the control or more as active, and values a quarter to a half above the control carry no call in these data; other NCI protocols may use other cut-offs. Some entries were tested several times; the values are given in rising order. Some T/C values are followed by the survivors on the day toxicity was checked, most often the fifth; without a count, all were alive then.

System: L1210 leukemia iv in BDF1 mice, survival T/C
Assay: NCI In Vivo Anticancer Drug Screen. Data for tumor model L1210 Leukemia (intravenous) in B6D2F1 (BDF1) mice
Settings: higher T/C = longer survival
Method: The antitumor activity of compounds was measured in mice bearing transplantable tumors. Survival or tumor size were measured and the results are expressed as the measurement made in the treated group (T) divided by the measurement made in the vehicle treated control group (C). The tumor model used in this assay is L1210 Leukemia (intravenous) in B6D2F1 (BDF1) mice

CC(=O)OC1CCC(NC(=O)N(CCF)N=O)CC1 (stereo not drawn)
survivor count (T/C endpoint: mean survival time, dose: 48.0 mg/kg/injection, schedule: Q01DX001 (oral), vehicle: other): 6 of 10
survivor count (T/C endpoint: mean survival time, dose: 54.0 mg/kg/injection, schedule: Q01DX001 (ip), vehicle: other): 6 of 10
survivor count (T/C endpoint: mean survival time, dose: 72.0 mg/kg/injection, schedule: Q01DX001 (oral), vehicle: other): 2 of 10
survivor count (T/C endpoint: mean survival time, dose: 81.0 mg/kg/injection, schedule: Q01DX001 (ip), vehicle: other): 1 of 10
survivor count (T/C endpoint: mean survival time, dose: 108.0 mg/kg/injection, schedule: Q01DX001 (oral), vehicle: other): 1 of 10
survivor count (T/C endpoint: mean survival time, dose: 162.0 mg/kg/injection, schedule: Q01DX001 (oral), vehicle: other): 0 of 10

CC(CN1CC(=O)NC(=O)C1)N1CC(=O)NC(=O)C1 (stereo not drawn)
T/C (T/C endpoint: mean survival time, dose: 500.0 mg/kg/injection, schedule: Q04DX003 (ip), vehicle: Klucel (hydroxypropylcellulose) (HPC), evaluated on day 5): 143 % of control
T/C (T/C endpoint: mean survival time, dose: 500.0 mg/kg/injection, schedule: Q04DX003 (ip), vehicle: Klucel (hydroxypropylcellulose) (HPC), evaluated on day 60): 143 % of control

CN(Cc1cnc2nc(N)nc(N)c2n1)c1ccc(C(=O)N[C@@H](CCC(=O)O)C(=O)O)cc1
T/C (T/C endpoint: mean survival time, dose: 110.0 mg/kg/injection, schedule: Q01DX001 (ip), vehicle: other): 146 % of control

N[C@@H](Cc1ccc(N(CCCl)CCCl)cc1)C(=O)O
T/C (T/C endpoint: mean survival time, dose: 6.6 mg/kg/injection, schedule: Q01DX001 (ip), vehicle: saline): 147 % of control
T/C (T/C endpoint: mean survival time, dose: 7.0 mg/kg/injection, schedule: Q01DX001 (ip), vehicle: carboxymethylcellulose (CMC)): 125 % of control
T/C (T/C endpoint: mean survival time, dose: 7.5 mg/kg/injection, schedule: Q01DX001 (ip), vehicle: saline): 144 % of control
T/C (T/C endpoint: mean survival time, dose: 9.0 mg/kg/injection, schedule: Q01DX001 (ip), vehicle: carboxymethylcellulose (CMC)): 127 % of control
T/C (T/C endpoint: mean survival time, dose: 9.5 mg/kg/injection, schedule: Q01DX001 (ip), vehicle: Klucel (hydroxypropylcellulose) (HPC), evaluated on day 3): 137 % of control
T/C (T/C endpoint: mean survival time, dose: 9.5 mg/kg/injection, schedule: Q01DX001 (ip), vehicle: Klucel (hydroxypropylcellulose) (HPC), evaluated on day 60): 137 % of control
T/C (T/C endpoint: mean survival time, dose: 10.0 mg/kg/injection, schedule: Q01DX001 (ip), vehicle: saline): 146 and 147 % of control
T/C (T/C endpoint: mean survival time, dose: 14.0 mg/kg/injection, schedule: Q01DX001 (ip), vehicle: carboxymethylcellulose (CMC)): 136 % of control [9 of 10 alive]
T/C (T/C endpoint: mean survival time, dose: 29.0 mg/kg/injection, schedule: Q01DX001 (ip), vehicle: carboxymethylcellulose (CMC)): 131 % of control

CC[C@H]1CN2CCc3cc(OC)c(OC)cc3[C@@H]2C[C@@H]1C[C@H]1NCCc2cc(OC)c(OC)cc21
survivor count (T/C endpoint: median survival time, dose: 16.0 mg/kg/injection, schedule: Q## X001 (ip), vehicle: saline): 5 of 10
survivor count (T/C endpoint: median survival time, dose: 32.0 mg/kg/injection, schedule: Q## X001 (ip), vehicle: saline): 6 of 10
survivor count (T/C endpoint: median survival time, dose: 48.0 mg/kg/injection, schedule: Q## X001 (ip), vehicle: saline): 1 of 10

O=NN(CCF)C(=O)NC1CSCSC1
T/C (T/C endpoint: mean survival time, dose: 3.7 mg/kg/injection, schedule: Q01DX001 (ip), vehicle: other): 139 % of control

Nc1n[nH]c(N)n1
T/C (T/C endpoint: mean survival time, dose: 225.0 mg/kg/injection, schedule: Q03HX024 (ip), vehicle: saline): 133 % of control
T/C (T/C endpoint: mean survival time, dose: 6000.0 mg/kg/injection, schedule: Q01DX001 (ip), vehicle: saline): 125 % of control
survivor count (T/C endpoint: mean survival time, dose: 8000.0 mg/kg/injection, schedule: Q01DX001 (ip), vehicle: saline): 6 of 10

Nc1ccn(C2OC(COC(=O)C34CC5CC(CC(C5)C3)C4)C(O)C2O)c(=O)n1 (stereo not drawn)
T/C (T/C endpoint: mean survival time, dose: 50.0 mg/kg/injection, schedule: Q01DX001 (ip), vehicle: other): 146 and 148 % of control

O=NN(CCCl)C(=O)NC1CSCSC1
T/C (T/C endpoint: mean survival time, dose: 4.0 mg/kg/injection, schedule: Q01DX001 (ip), vehicle: other): 129 % of control
survivor count (T/C endpoint: mean survival time, dose: 16.5 mg/kg/injection, schedule: Q04DX004 (ip), vehicle: saline with Tween-80): 10 of 10
